Results are given in words; binding and its absence hold for the method and conditions named. Some entries that bind do so weakly or less than the wild type.
Target: GAL4-DBD-α1cyt (α1-integrin cytoplasmic domain fused to GAL4 DNA-BD in the pGBKT7 vector) (UniProt P04386)
Assay: yeast two-hybrid screen

By UniProt entry, the sequences of proteins in these tests, tags left out. Where a name states a change or a piece, a line headed by the entry shows the natural chain unless it says otherwise.
UniProt P04386: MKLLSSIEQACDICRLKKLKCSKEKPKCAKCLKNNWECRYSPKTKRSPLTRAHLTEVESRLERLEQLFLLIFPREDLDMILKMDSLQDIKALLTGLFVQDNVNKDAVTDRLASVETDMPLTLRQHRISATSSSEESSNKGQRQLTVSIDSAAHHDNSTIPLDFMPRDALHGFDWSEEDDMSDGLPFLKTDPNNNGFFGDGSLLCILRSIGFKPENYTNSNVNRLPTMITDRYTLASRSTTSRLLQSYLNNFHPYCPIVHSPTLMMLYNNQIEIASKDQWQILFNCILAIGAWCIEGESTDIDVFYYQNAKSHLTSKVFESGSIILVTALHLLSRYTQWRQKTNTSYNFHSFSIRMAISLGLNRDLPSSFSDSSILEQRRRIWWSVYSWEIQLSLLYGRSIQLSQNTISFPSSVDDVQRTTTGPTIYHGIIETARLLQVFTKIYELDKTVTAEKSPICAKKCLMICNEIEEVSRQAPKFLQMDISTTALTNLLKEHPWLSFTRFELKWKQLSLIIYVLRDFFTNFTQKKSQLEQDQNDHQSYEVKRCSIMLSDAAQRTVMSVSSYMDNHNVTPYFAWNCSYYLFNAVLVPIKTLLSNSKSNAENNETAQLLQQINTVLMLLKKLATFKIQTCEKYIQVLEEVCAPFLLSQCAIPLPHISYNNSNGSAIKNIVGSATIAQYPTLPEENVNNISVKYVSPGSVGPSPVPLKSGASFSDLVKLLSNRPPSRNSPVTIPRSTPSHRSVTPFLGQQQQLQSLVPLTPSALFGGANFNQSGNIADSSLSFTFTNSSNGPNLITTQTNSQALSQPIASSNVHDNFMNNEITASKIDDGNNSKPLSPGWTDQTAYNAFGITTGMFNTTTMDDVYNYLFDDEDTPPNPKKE

binding: binds
B1: T-cell protein tyrosine phosphatase clone from mouse 17-day embryo Matchmaker cDNA library (45 kDa form of TCPTP) (enzyme, UniProt Q06180-2 1-382, looked up)
chain: MSATIEREFEELDAQCRWQPLYLEIRNESHDYPHRVAKFPENRNRNRYRDVSPYDHSRVKLQSTENDYINASLVDIEEAQRSYILTQGPLPNTCCHFWLMVWQQKTKAVVMLNRTVEKESVKCAQYWPTDDREMVFKETGFSVKLLSEDVKSYYTVHLLQLENINTGETRTISHFHYTTWPDFGVPESPASFLNFLFKVRESGCLTPDHGPAVIHCSAGIGRSGTFSLVDTCLVLMEKGEDVNVKQLLLNMRKYRMGLIQTPDQLRFSYMAIIEGAKYTKGDSNIQKRWKELSKEDLSPICDHSQNRVMVEKYNGKRIGSEDEKLTGLPSKVQDTVEESSESILRKRIREDRKATTAQKVQQMKQRLNETERKRKRPRLTDT
